Measurements reported in PubChem BioAssay AID1259405 (NCATS, 2018).
In all, the deposit lists about 50,000 reagents; this is a random part of them. Of all reagents, about 4,000 (8%) got an active call. 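Mouse siRNA library applied to hamster cells; one well for each siRNA.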 A number with no mark means an inactive call. The numbers tell different reagents against one gene apart.

Aim: 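Knock-downs that lift recombinant protein yield in hamster ovary cells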 (primary screen)
System: Chinese hamster CHO-K1 ovary cells with stable secreted eGFP expression
Reagents: single siRNA against mouse genes, 0.8 pmol siRNA per well (2 µl of 400 nM stock)
Duration: 3 days
Read-out: 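Per-well intracellular GFP measured by laser scanning cytometry, plus viability from ATP luminescence, each relative to plate median of non-targeting control wells, in %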
Direction: GFP, % of control: higher = more GFP per well, higher productivity; viability (ATP), % of control: higher = more viable cells (more ATP)
Call rule: 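Called active when intracellular GFP, relative to negative control, is at or above 120%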

target	siRNA no.	GFP, % of control	viability (ATP), % of control
Psma7 (proteasome subunit alpha 7)	1	21.7	7.55
Psma7 (proteasome subunit alpha 7)	2	68.7	54.9
Psma7 (proteasome subunit alpha 7)	3	29.8	6.99
Zfp652 (zinc finger protein 652)	1	89	62.5
Zfp652 (zinc finger protein 652)	2	32.5	45.3
Zfp652 (zinc finger protein 652)	3	82.7	93.1
Atg2a (autophagy related 2A)	1	50	47.7
Atg2a (autophagy related 2A)	2	69.1	74
Atg2a (autophagy related 2A)	3	128 (active)	132
Acad12 (acyl-Coenzyme A dehydrogenase family, member 12)	1	48.4	40.3
Acad12 (acyl-Coenzyme A dehydrogenase family, member 12)	2	82.2	107
Acad12 (acyl-Coenzyme A dehydrogenase family, member 12)	3	51	85.7
Srl (sarcalumenin)	1	98.3	115
Srl (sarcalumenin)	2	127 (active)	87.7
Rnf220 (ring finger protein 220)	1	47.5	61.4
Rnf220 (ring finger protein 220)	2	91.1	60.4
Rnf220 (ring finger protein 220)	3	79.9	85.1
Nfkbid	1	78.6	91.2
Nfkbid	2	103	77.5
Nfkbid	3	83.1	93
Togaram2 (TOG array regulator of axonemal microtubules 2)	1	58.9	92.2
Togaram2 (TOG array regulator of axonemal microtubules 2)	2	86.8	66.1
Togaram2 (TOG array regulator of axonemal microtubules 2)	3	53.9	118
Mal2 (mal, T cell differentiation protein 2)	1	77.9	91.3
Mal2 (mal, T cell differentiation protein 2)	2	72.2	90.3
Mal2 (mal, T cell differentiation protein 2)	3	48.4	72.4
Rhox7a (reproductive homeobox 7A)	1	120	105
Rhox7a (reproductive homeobox 7A)	2	123 (active)	77.8
Rhox7a (reproductive homeobox 7A)	3	65.9	49.8
Hcrt (hypocretin)	1	50.6	59.7
Hcrt (hypocretin)	2	70.4	75.2
Hcrt (hypocretin)	3	64.6	56.9
Snn (stannin)	1	93.3	90.2
Snn (stannin)	2	96	65.6
Snn (stannin)	3	44.5	60.9
Lmod2 (leiomodin 2 (cardiac))	1	61.2	65.7
Lmod2 (leiomodin 2 (cardiac))	2	91.7	77.5
Lmod2 (leiomodin 2 (cardiac))	3	96.6	83.3
Clcn7 (chloride channel, voltage-sensitive 7)	1	56.1	97.8
Clcn7 (chloride channel, voltage-sensitive 7)	2	66.7	63.3
Clcn7 (chloride channel, voltage-sensitive 7)	3	100	59.4
D17H6S56E-5 (DNA segment, Chr 17, human D6S56E 5)	1	89	90.3
D17H6S56E-5 (DNA segment, Chr 17, human D6S56E 5)	2	58.8	69.2
D17H6S56E-5 (DNA segment, Chr 17, human D6S56E 5)	3	159 (active)	63.4
Fabp2 (fatty acid binding protein 2, intestinal)	1	129 (active)	108
Fabp2 (fatty acid binding protein 2, intestinal)	2	101	77.7
Fabp2 (fatty acid binding protein 2, intestinal)	3	81.9	69.9
Clec4f (C-type lectin domain family 4, member f)	1	55.9	51.1
Clec4f (C-type lectin domain family 4, member f)	2	81.2	44.6
Clec4f (C-type lectin domain family 4, member f)	3	94.5	73.7
Rtn4r (reticulon 4 receptor)	1	108	94.1
Rtn4r (reticulon 4 receptor)	2	61.8	68.1
Rtn4r (reticulon 4 receptor)	3	167 (active)	73.5
Tmem150a (transmembrane protein 150A)	1	67.2	71
Tmem150a (transmembrane protein 150A)	2	89.8	116
Tmem150a (transmembrane protein 150A)	3	64.6	89
Pex39 (peroxisomal biogenesis factor 39)	1	41.3	53
Pex39 (peroxisomal biogenesis factor 39)	2	55.9	60.3
Pex39 (peroxisomal biogenesis factor 39)	3	94.7	95.7

Active calls (from the list above):
target	siRNA no.	GFP, % of control	viability (ATP), % of control
Atg2a (autophagy related 2A)	3	128 (active)	132
Srl (sarcalumenin)	2	127 (active)	87.7
Rhox7a (reproductive homeobox 7A)	2	123 (active)	77.8
D17H6S56E-5 (DNA segment, Chr 17, human D6S56E 5)	3	159 (active)	63.4
Fabp2 (fatty acid binding protein 2, intestinal)	1	129 (active)	108
Rtn4r (reticulon 4 receptor)	3	167 (active)	73.5
